Test results from PMC9731694, “SRSF5‐Mediated Alternative Splicing of M Gene is Essential for Influenza A Virus Replication: A Host‐Directed Target Against Influenza Virus” (Advanced Science, 2022).
No constants are given. Whether binding was seen depends on the method and setting. For some assays here: In cells and extracts the contact can be indirect. Some entries that bind do so weakly or less than the wild type. For some assays here: Tags and fused reporters may be left off the sequences shown. One block for each molecule: values may come before it.

The chains behind the UniProt entries cited, without tags or fusion partners. Where a name states a change or a piece, a line headed by the entry shows the natural chain unless it says otherwise.
UniProt P08621: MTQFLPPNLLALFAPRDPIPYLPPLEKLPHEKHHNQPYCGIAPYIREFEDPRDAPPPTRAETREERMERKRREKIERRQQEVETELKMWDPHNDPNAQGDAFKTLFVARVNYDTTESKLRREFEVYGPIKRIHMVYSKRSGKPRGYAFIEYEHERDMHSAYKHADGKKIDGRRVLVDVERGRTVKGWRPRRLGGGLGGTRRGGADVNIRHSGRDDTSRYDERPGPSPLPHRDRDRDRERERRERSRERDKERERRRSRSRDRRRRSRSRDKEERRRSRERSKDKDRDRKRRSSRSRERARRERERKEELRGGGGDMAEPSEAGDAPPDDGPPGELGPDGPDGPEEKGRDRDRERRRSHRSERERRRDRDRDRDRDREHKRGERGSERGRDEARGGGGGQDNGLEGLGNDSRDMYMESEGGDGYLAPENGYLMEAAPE
UniProt P09234: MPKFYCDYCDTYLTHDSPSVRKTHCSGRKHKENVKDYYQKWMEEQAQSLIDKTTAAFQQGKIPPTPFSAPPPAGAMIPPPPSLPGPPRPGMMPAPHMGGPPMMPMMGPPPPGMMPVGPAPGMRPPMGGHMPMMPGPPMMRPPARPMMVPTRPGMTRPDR
UniProt P09012: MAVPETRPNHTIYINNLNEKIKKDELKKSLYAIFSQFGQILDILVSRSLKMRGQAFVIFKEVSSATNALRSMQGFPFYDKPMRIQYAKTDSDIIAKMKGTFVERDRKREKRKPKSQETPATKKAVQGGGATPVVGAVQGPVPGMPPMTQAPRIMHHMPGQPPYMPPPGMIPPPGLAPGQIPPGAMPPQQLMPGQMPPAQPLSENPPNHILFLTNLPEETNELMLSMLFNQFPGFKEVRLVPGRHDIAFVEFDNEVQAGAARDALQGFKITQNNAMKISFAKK

Legend:
[1] = target: T1, HA-tagged SRSF5 (human) (UniProt Q13243); assay: co-IP; HEK293 cells cotransfected with HA-tagged SRSF5 and Flag-U1A, Flag-U1C or Flag-U1-70k
T1 sequence: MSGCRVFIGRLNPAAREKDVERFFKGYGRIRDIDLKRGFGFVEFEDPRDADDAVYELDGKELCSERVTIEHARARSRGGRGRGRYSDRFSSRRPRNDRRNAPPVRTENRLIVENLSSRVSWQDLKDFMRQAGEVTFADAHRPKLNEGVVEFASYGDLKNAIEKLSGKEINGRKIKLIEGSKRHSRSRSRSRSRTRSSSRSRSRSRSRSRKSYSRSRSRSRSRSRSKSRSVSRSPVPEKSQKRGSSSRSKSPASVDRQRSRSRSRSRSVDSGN

[2] = target: T2, serine and arginine-rich splicing factor 5 (SRSF5), endogenous (human (endogenous in A549 or HEK293)) (UniProt Q13243); assay: co-IP
T2 sequence: T1 sequence

[3] = target: T3, purified recombinant SRSF5-Flag (human) (UniProt Q13243); assay: pull-down; purified SRSF5-Flag added to srsf5-/- HEK293 cell lysate 1 h at 4 °C, Flag-M2 affinity beads 1 h at 4 °C; washes at the low end of the salt series (from 200 mM NaCl); immunoblot for U1A and U1-70K; only the target purified
T3 sequence: T1 sequence

[4] = target: T2, serine and arginine-rich splicing factor 5 (SRSF5), endogenous (human (endogenous in A549 or HEK293)); assay: proximity ligation
[5] = target: T3, purified recombinant SRSF5-Flag (human); assay: pull-down; as a4, salt sensitivity test: washes at 300-400 mM NaCl; only the target purified
[6] = target: GST-U1-70K-His (human (amplified from A549 cells)) (UniProt P08621); assay: condition: 300 ng SRSF5-Flag with 150 ng GST-tagged protein in 300 µL; pull-down; GST pulldown: 300 ng purified SRSF5-Flag with 150 ng glutathione-bound GST-tagged protein, 300 µL, 1 h at 4 °C; 50 mM Tris pH 7.5, 200 mM NaCl, 10% glycerol, 0.5% Triton-X-100, RNaseA; blot with anti-Flag or anti-His; both purified
[7] = target: GST-U1C-His (human (amplified from A549 cells)) (UniProt P09234); assay: as above

- binding [1]: binds
Molecule: Flag-U1A (from UniProt P09012 1-282)

- binding [1]: no binding
Molecule: Flag-U1C (from UniProt P09234 1-159)

- binding [2]: binds
- binding [3]: binds
- binding [4]: binds
- binding [5]: binds
Molecule: U1A, core protein component of U1 snRNP, endogenous (from UniProt P09012 1-282)

B1: purified recombinant SRSF5-Flag (natural protein, human, UniProt Q13243 1-272, looked up)
chain: T1 sequence
notes: also called hSRSF5-Flag; Flag-SRSF5
- binding [6]: no binding
- binding [7]: no binding
